According to patent publication US20240069033A1, “METHOD FOR SCREENING FOR CANDIDATE MOLECULE CAPABLE OF FORMING COMPLEX IN CONJUNCTION WITH PLURALITY OF TARGET MOLECULES” (Chugai Seiyaku Kabushiki Kaisha, priority 2020, published 2024):
For at least one compound, name, drawing or mass did not settle the structure.

Tested on: His×6-FKBP12-Link12-GFP11, GFP10-Link12-FRB-His×6 and biotinylated GFP1-9
Settings: conditions where GFP10-Link12-FRB-His×6 was not present

## CO[C@H]1C[C@@H]2CC[C@@H](C)[C@@](O)(O2)C(=O)C(=O)N2CCCC[C@H]2C(=O)O[C@H]([C@H](C)C[C@@H]2CC[C@@H](O)[C@H](OC)C2)CC(=O)[C@H](C)/C=C(\C)[C@@H](O)[C@@H](OC)C(=O)[C@H](C)C[C@H](C)/C=C/C=C/C=C/1C [Rapamycin, rapamycin]
  recovery of rapamycin (in words): not recovered
